In article PMC6542935 one finds binding data, which are given here for one molecule.

Results are given in words; binding and its absence hold for the method and conditions named.

This test has as its target T1, LAX PANICLE 1 (rice (Oryza sativa)) (UniProt Q7XAQ6).
T1 sequence: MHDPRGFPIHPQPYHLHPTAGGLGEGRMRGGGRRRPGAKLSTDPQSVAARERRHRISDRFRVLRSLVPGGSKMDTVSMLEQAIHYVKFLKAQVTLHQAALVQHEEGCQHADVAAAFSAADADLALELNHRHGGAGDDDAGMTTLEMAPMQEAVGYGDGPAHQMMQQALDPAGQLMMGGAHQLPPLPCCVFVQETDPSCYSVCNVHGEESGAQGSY
As to the kind of experiment: two-hybrid; OsSPL7 as prey in pGAD-T7, LAX1 or LAX2 as bait in pGBK-T7; yeast on SD-LT and SD-LTAH media (Clontech system).

B1: OsSPL7 (protein, UniProt Q7XT42 1-360)
chain: MEGNGCGGSGATPRGVVGMHWAPVVTSPPSPQPPFLPPAPCRPDVQMQQQGGLTCLKLGKRPCFWGGDGAGQVAQGSGGGGGGGGGGSADQGKRKEKAATAVPVVPRCQVEGCDITLQGVKEYHRRHKVCEVHAKAPRVVVHGTEQRFCQQCSRFHVLAEFDDAKKSCRRRLAGHNERRRRSNASEAMARGSAHPHGMPVLGHGFPPYGLPTSSAGALSLLSSARATGPWLMPTPDISARSSAALDELIAENRAALLSWQFFSDRQPPPAGRPTGRSPGSETAGGWHAHLQARPPPPGAGGQHENQSGHVTLDLMQATTAAGGSGAPFRPVPARPPKEGGDAGCTSDAWTPSPMEGARVV
With B1, the binding entry is “no binding”.
